Measurements from ChEMBL document CHEMBL1141721, “Structure-toxicity relationship of aminoglycosides: correlation of 2'-amine basicity with acute toxicity in pseudo-disaccharide scaffolds” (Bioorg Med Chem, 2008).
Converted amounts (≈) assume the structure as drawn.

Legend:
Type in all cases: functional
Pseudomonas aeruginosa [1] = assay: Antimicrobial activity against Pseudomonas aeruginosa ATCC 27853 by double-microdilution method
Procedure, shortened: (§1)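 Double-microdilution method following NCCLS, starting at 384 µg/mL of compound with doubling dilutions. Run in triplicate (a table footnote says duplicates), with analogous results in three separate experiments.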

Escherichia coli [2] = assay: Antimicrobial activity against Escherichia coli XL1 expressing APH(3')-1a by double-microdilution method; procedure, shortened: as §1
Escherichia coli [3] = assay: Inhibition of translation in Escherichia coli S30 extract by coupled transcription/translation assay
Procedure, shortened: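 E. coli S30 extract for circular DNA with pBES-Tluc plasmid, coupled transcription/translation. 25 µL reactions with varied aminoglycoside concentrations, 60 min at 37 °C, then 5 min on ice. Diluted into Tris-phosphate 25 mM pH 7.8 buffer with DTT, CDTA, glycerol, Triton X-100 and BSA. Luciferase luminescence read at once; IC50 fitted from concentration-response curves of at least two independent experiments.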

Escherichia coli [4] = assay: Antimicrobial activity against Escherichia coli R477-100 by double-microdilution method
Escherichia coli [5] = assay: Antimicrobial activity against Escherichia coli ATCC 25922 by double-microdilution method; procedure, shortened: as §1
Pseudomonas aeruginosa [6] = assay: Antimicrobial activity against Pseudomonas aeruginosa 584/5 isolate by double-microdilution method; procedure, shortened: as §1

`CNC1C(O)C(OC2C(N)CC(N)C(OC3OC(CN)CCC3N)C2O)OCC1(C)O` (stereo unspecified) [GENTAMICIN C1A] gave an MIC (Pseudomonas aeruginosa [1]) of 12 µg/mL (≈ 26.7 µM), an MIC (Escherichia coli [2]) of 12 µg/mL (≈ 26.7 µM) and an IC50 (Escherichia coli [3]) of 59 nM. The MIC (Escherichia coli [4]) was 48 µg/mL (≈ 107 µM), the MIC (Escherichia coli [5]) was 96 µg/mL (≈ 214 µM) and the MIC (Pseudomonas aeruginosa [6]) was 48 µg/mL (≈ 107 µM).
